Data on three substances can be found in patent US9849174B2 (The Board of Regents of the University of Texas System, priority 2009, dated 2017).

Ends that are not written are not given here.

This data set can be described thus: general procedure: Fmoc solid-phase peptide synthesis; Rink Amide MBHA or Wang resin; HBTU, HOBt, DIEA. The following applies: whole synthesis.
For the substance Ac-QQKFQFQFEQQ-NH2, the “final HPLC purity” value was 92.0-97.5%. With H-ISQAVHAAHAEINEAGR-OH the figure was 91.6-95%; with “ISQAVHAAHAEINEAGRSGSGQQKFQFQFEQQ-NH2 (C-terminus assumed)”, 96.2-98.0%.
